Data reported in PubChem BioAssay AID2685 (National Center for Advancing Translational Sciences (NCATS), 2010).
Some of the results follow. The main result of the screen is listed elsewhere. These columns were measured beside it and carry no call. Compounds called inactive in the main read-out are mostly missing here. The note in brackets gives the kind of curve behind each potency; many fits are weak.

Assay: qHTS Assay for Lipid Storage Modulators in Drosophila S3 Cells;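 as to cell number change: cells counted by Cell Tracker Red CMTPX staining in the red channel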
Settings: BODIPY lipid droplet fluorescence, 18-24 h; for cell number change: measured here: cell count max response, cells fed with added oleic acid
How it was run: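 Drosophila S3 cells got compounds at several concentrations plus oleic acid (400 uM solution). Laser-scanning cytometry with 488 nm excitation read lipid droplets at 500-530 nm and cells at 575-640 nm. Percent activity was relative to 20 uM Triacsin C.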

[1] = measured here: cell number channel AC50, cells fed with added oleic acid
[2] = measured here: lipid fluorescence (Fed channel) AC50, cells fed with added oleic acid

Cc1cccc(-n2ncc3c(N4CCCc5ccccc54)ncnc32)c1
cell number change: 9.87% | AC50 [1]: 2.31 µM [rising, single point] | AC50 [2]: 18.4 µM [rising, partial curve]

COC(=O)Nc1ccc(S(=O)(=O)Nc2ccc(C)cc2)cc1
AC50 [1]: 2.31 µM [rising, single point]

CCCCC(=O)OCc1nc2ccccc2s1
AC50 [2]: 0.116 µM [rising, single point]

CCOc1ccc(CCNC(=O)CS(=O)Cc2nc(-c3ccccc3C)oc2C)cc1OCC (stereo unspecified)
cell number change: -5.51%

Cc1ccccc1SCC(=O)Nc1cccc(C#N)c1
cell number change: 9.73% | AC50 [2]: 1.64 µM [rising, partial curve]

O=C(Cn1nnc2ccccc21)Nc1ccc([N+](=O)[O-])cc1
cell number change: 13.5% | AC50 [2]: 4.61 µM [rising, full curve, poor fit]

COc1cc(S(=O)(=O)N2CCC(C(N)=O)CC2)c(C)cc1C
cell number change: -97.8% | AC50 [1]: 1.84 µM [falling, full curve] | AC50 [2]: 6.51 µM [falling, full curve]

Cc1nc2ccccc2c(=O)n1/N=C/c1ccc(C(C)C)cc1
cell number change: -36.4% | AC50 [1]: 29.1 µM [falling, single point]

CC(C)CCn1nnnc1C(c1ccc(F)cc1)N1CCN(C(=O)c2ccco2)CC1 (stereo unspecified)
cell number change: -15.9% | AC50 [2]: 20.6 µM [falling, single point]

CCOC(=O)N1CCN(S(=O)(=O)c2ccc3c4c(cccc24)C(=O)N3)CC1
cell number change: -0.0268% | AC50 [2]: 0.0206 µM [falling, full curve, poor fit]

O=C(Cc1cccs1)Nc1ccc(F)cc1F
cell number change: 12.2% | AC50 [2]: 29.1 µM [rising, partial curve, poor fit]

CCOC(=O)CCCn1ncn2c(cc3occc32)c1=O
cell number change: 0.238%

CCOc1ncccc1C(=O)NNC(=O)c1ccccc1-n1cccc1
cell number change: 3.55%

C=CCn1c(=O)c2c(nc3n2CCN3c2cccc(Cl)c2C)n(C)c1=O
cell number change: -6.53%

Nc1ccc(SC(F)(F)F)cc1
cell number change: 22.9% | AC50 [1]: 3.66 µM [falling, single point]

O=C(Nc1ccc(F)c([N+](=O)[O-])c1)C(=O)c1c(O)[nH]c2ccccc12
cell number change: 0.721%

CCN(CC)c1ccc(S(=O)(=O)N2CCOCC2)cc1NC(=O)COC(=O)/C=C/c1ccc(C)o1
AC50 [1]: 0.731 µM [falling, single point]

Cc1cccc(C)c1NC(=O)CCc1nnc2ccc(N3CCCC3)nn12
cell number change: -13.9%

C/C(Cn1cnc([N+](=O)[O-])n1)=N\NC(=O)c1cccnc1
cell number change: 20% | AC50 [2]: 29.1 µM [rising, single point]

Cc1ccc(NC(=O)c2sc(N)nc2-c2ccccc2)cc1C
AC50 [2]: 0.00517 µM [falling, full curve, poor fit]

COc1ccc(NCc2nc3ccccc3n2CCOc2ccc(C)cc2)cc1
cell number change: -46.6% | AC50 [1]: 23.1 µM [falling, partial curve] | AC50 [2]: 3.26 µM [rising, partial curve]

COc1ccc(C(=O)/C=C/C(=O)N(Cc2ccc3c(c2)OCO3)C(C(=O)NC2CCCCC2)c2ccncc2)c(O)c1 (stereo unspecified)
cell number change: -3.37% | AC50 [2]: 29.1 µM [falling, single point]

NC(=O)COc1ccc(C(=O)/C=C2/C(=O)Nc3ccccc32)cc1
cell number change: -63.8% | AC50 [1]: 29.1 µM [falling, single point]

O=C(Nc1nnc(SCC(=O)N2CCCC2)s1)C1CC(=O)N(c2ccccc2)C1 (stereo unspecified)
cell number change: 8.01%

CCN(c1ccccc1)S(=O)(=O)c1ccc(Cl)c(C(=O)OCC(=O)c2[nH]c(C)c(C(C)=O)c2C)c1
AC50 [2]: 16.4 µM [rising, partial curve, poor fit]

COc1ccc(C)cc1NS(=O)(=O)c1ccc(NS(=O)(=O)c2ccc(NC(C)=O)cc2)cc1
AC50 [1]: 0.58 µM [rising, single point] | AC50 [2]: 0.58 µM [rising, single point]

O=S(=O)(O)c1ccc(N2N=C(c3ccccc3)CC2c2ccccc2)cc1 (stereo unspecified)
cell number change: 55.8% | AC50 [1]: 29.1 µM [rising, single point] | AC50 [2]: 3.66 µM [rising, full curve]

COC(=O)c1c(NC(=O)CN2CCCC(C)C2)c2c(C)cccc2n1C (stereo unspecified)
AC50 [2]: 7.31 µM [falling, partial curve]

CCCOc1ccc(C2C(C(=O)c3cc4ccccc4o3)=C(O)C(=O)N2c2cc(C)on2)cc1OC (stereo unspecified)
AC50 [2]: 29.1 µM [rising, single point]

O=C(C1COc2ccccc2O1)N1CCN(S(=O)(=O)c2cc(F)ccc2F)CC1 (stereo unspecified)
cell number change: -18.5% | AC50 [2]: 29.1 µM [rising, single point]

COC(=O)[C@@]12CCCCN1[C@H](c1ccc(-c3ccc(C(C)=O)cc3)cc1)[C@H]1C(=O)N(C)C(=O)[C@H]12
cell number change: 13.1%

COc1ccc(C(=O)NC(CCSC)C(=O)N2CCCCCC2)cc1 (stereo unspecified)
cell number change: -4.76% | AC50 [1]: 2.31 µM [rising, single point] | AC50 [2]: 6.51 µM [falling, partial curve]

O=C(Cc1cccc(C(F)(F)F)c1)Nc1cccc(S(=O)(=O)N2CCCC2)c1
cell number change: 42.2% | AC50 [1]: 20 µM [rising, partial curve] | AC50 [2]: 6.31 µM [rising, single point]

CN(Cc1cccc(F)c1)C(=O)CSc1nnnn1C1CC1
AC50 [2]: 2.06 µM [rising, partial curve]

Nc1ccc(Oc2ccc3nc(-c4ccccc4)c(-c4ccccc4)nc3c2)cc1
cell number change: -17% | AC50 [2]: 1.84 µM [falling, single point]

CC(C)n1cc(NC(=O)c2cc(-c3ccccc3)on2)cn1
cell number change: 71.9% | AC50 [1]: 1.3 µM [rising, full curve] | AC50 [2]: 1.84 µM [rising, partial curve]

O=C(CCc1ccccc1)Nc1ccc2c(c1)OCCO2
cell number change: -5.91%

Cc1ccc(OCC(=O)OC(C)CN2CCCCC2)cc1 (stereo unspecified)
cell number change: 9.79%

COc1ccccc1NC(=O)C1=C(C)NC2=C(C(=O)CC(c3ccc(OC)c(OC)c3)C2)C1c1coc2ccccc2c1=O (stereo unspecified)
cell number change: -4% | AC50 [2]: 32.6 µM [falling, single point]

O=C(c1cc(C2CC2)on1)N1CCOCC1
cell number change: 12.4% | AC50 [2]: 6.51 µM [rising, single point]

O=C(Nc1ccccc1N1CCOCC1)c1cccc([N+](=O)[O-])c1
cell number change: -83.3% | AC50 [1]: 7.31 µM [falling, partial curve, poor fit]

CCOc1ccccc1N(CC(=O)NCC1CCCO1)C(=O)CCC(=O)Nc1nccs1 (stereo unspecified)
cell number change: -16.7% | AC50 [2]: 29.1 µM [rising, single point]

CC(NC(=O)c1ccc(CS(C)(=O)=O)cc1)c1ccc(-n2ccnc2)cc1 (stereo unspecified)
AC50 [2]: 29.1 µM [rising, single point]

N#Cc1ccccc1CSc1nc(N2CCCCC2)nc(N2CCCCC2)n1
AC50 [1]: 2.91 µM [rising, partial curve] | AC50 [2]: 4.61 µM [rising, partial curve]

CC(=O)Nc1cccc(C(=O)NC2CCCc3c2cnn3-c2cc(C)cc(C)c2)c1 (stereo unspecified)
cell number change: -47.5% | AC50 [1]: 7.31 µM [falling, partial curve] | AC50 [2]: 0.731 µM [falling, full curve]

CCc1nn(CC(=O)NCCCN2CCOCC2)c(=O)c2cc3cc(F)ccc3n12
cell number change: -7.95% | AC50 [2]: 29.1 µM [rising, single point]

N#C/C(=C\c1ccc(OCc2ccc(C(=O)O)cc2)cc1)C(=O)N1CCOCC1
cell number change: 1.02% | AC50 [2]: 29.1 µM [falling, single point]

O=C(CSc1nnc(CNC(=O)c2c(F)cccc2Cl)o1)Nc1ccc2c(c1)OCO2
cell number change: -4.75% | AC50 [1]: 0.103 µM [falling, full curve, poor fit] | AC50 [2]: 0.116 µM [falling, full curve, poor fit]

CCC(C)(C)C1CCC2(CC1)NC(=O)N(CC(=O)NCCc1ccc(OC)c(OC)c1)C2=O (stereo unspecified)
cell number change: -49.8% | AC50 [1]: 1.3 µM [falling, full curve] | AC50 [2]: 0.146 µM [falling, full curve]

COc1cc(CNc2ccc3[nH]c(=O)[nH]c3c2)ccc1OCc1c(F)cccc1Cl
cell number change: 9.86%

COC(=O)c1ccc(C)c(NS(=O)(=O)c2ccc(C)c([N+](=O)[O-])c2)c1
cell number change: -11.6%

COc1ccc(CN(C)c2ncnc3sccc23)c(OC)c1OC
cell number change: -5.26% | AC50 [2]: 3.55 µM [falling, single point]

CC(C)(C)/C=N/NC(=O)C1CC1
cell number change: 13.5% | AC50 [2]: 18.4 µM [rising, single point]

CCN(CC(=O)NCCN1CCOCC1)S(=O)(=O)c1ccc(F)cc1
cell number change: -10.5%

CCN1CCN(C(=S)NCCOC)CC1
cell number change: -12.2% | AC50 [2]: 20.6 µM [falling, single point]

CCCCn1nc(C(=O)N2CCc3ccccc32)c2ccccc2c1=O
cell number change: -27.3% | AC50 [2]: 2.91 µM [rising, partial curve]

CN(C)c1nc2ccccc2c(N)c1-c1ccccc1
cell number change: -15.2%

CC(C)CCNC(=O)NC(=O)COC(=O)CNC(=O)C1CCCCC1
cell number change: -5.87% | AC50 [1]: 0.00461 µM [rising, full curve, poor fit]

COc1cc(CN2CCNC(=O)C2CC(=O)NCCC2=CCCCC2)cc(OC)c1 (stereo unspecified)
cell number change: -10.3% | AC50 [2]: 0.259 µM [falling, partial curve, poor fit]

CCCc1ccc(OCC(O)CN2CCN(CCO)CC2)cc1 (stereo unspecified)
cell number change: -6.35%

CCn1nc2cc(C(=O)NCCc3cccs3)ccc2c1OC
cell number change: -1.04% | AC50 [2]: 0.461 µM [falling, full curve, poor fit]

O=C(N/N=C/c1ccoc1)c1ccccc1
cell number change: -23.8%

CN1CCc2c(sc3c2c(NCc2ccco2)nc2nnnn23)C1
cell number change: 49.7% | AC50 [1]: 10.3 µM [rising, partial curve]
